Laboratory results from PubChem BioAssay AID540276 (National Center for Advancing Translational Sciences (NCATS), 2011).
The campaign covered roughly 300,000 compounds. About 5,400 (1.8%) were called active. Inconclusive results, whose numbers are uncertain, are shown with a selection of clear calls. The call rests on the fitted dose curve; tested in HEK293 cells. Potencies of inconclusive entries are doubtful fits and often do not repeat.
On the % scale 0 is the no-effect control and ±100 the full control effect; potency means the concentration at half of the fitted maximal effect.

Test: qHTS for inhibitors of binding or entry into cells for Marburg Virus
Conditions: Marburg virus pseudotyped entry inhibition, cell reporter; activity change, negative = inhibition: at 37.8 µM (top of the series) unless noted
With `Cc1ccc(C)c(S(=O)(=O)Nc2ccc3scnc3c2)c1` the Potency was inconclusive: 15.8 µM [inhibitor, partial curve, poor fit]. For `O=C(COC(=O)/C=C/c1ccccc1)NC1CCCCC1`, the Potency was inconclusive: 0.316 µM [inhibitor, partial curve, poor fit]. With `COc1cccc(-c2nnc3n(Cc4ccc(C)cc4)c(=O)c4ccccc4n23)c1O` the “activity change, negative = inhibition” value was inactive: 26.9% [at 46.1 µM]. In the case of `CC(=O)N1c2ccc(S(=O)(=O)NCC3CCC(C(=O)Nc4cc(C)ccn4)CC3)cc2CC1C` (stereo not drawn), the “activity change, negative = inhibition” value is reported as inactive: 4.61% [at 46.1 µM]. With `O[C@H]1CN(CC2CCCCC2)[C@@H](c2ccc(Cl)cc2)C[C@H]1n1cc(-c2ccc(F)cc2)nn1` the Potency was inconclusive: 7.05 µM [inhibitor, partial curve]. With `CCC(=O)Nc1nnc(SCc2ccccc2F)s1` the “activity change, negative = inhibition” value was inactive: 1.26% [at 46.1 µM]. In the case of `O=C(C1CC(c2ccc(F)cc2)=NO1)N1CCCc2ccccc21` (stereo not drawn), the Potency is reported as inconclusive: 32.6 µM [inhibitor, single point]. With `O=C(O)CSc1ccccn1` the Potency was inconclusive: 15.8 µM [activator, partial curve, poor fit]. With `CC(=O)Nc1cc(C)c2nc(NC(C)=O)sc2c1` the “activity change, negative = inhibition” value was inactive: 18.7%. For `CCOC(=O)c1ccccc1NC(=O)Cn1c(=O)n(CCC(=O)NCc2ccccc2OC)c(=O)c2ccccc21`, the Potency was inconclusive: 2.24 µM [inhibitor, partial curve, poor fit]. In the case of `COc1ccccc1N1CCN(C(=O)c2c(-c3c(Cl)cccc3Cl)noc2C)CC1`, the Potency is reported as inconclusive: 35.5 µM [inhibitor, single point]. With `COc1cc(/C=C2\SC(=O)N(CCNC(=O)c3c(C)noc3C)C2=O)cc(OC)c1OC` the Potency was inconclusive: 12.6 µM [inhibitor, single point]. For `C=CCN1c2ccccc2[C@]23CCC(=O)N(CCOC)C2=NC(C(=O)OC)=C(C(=O)OC)[C@H]13`, the Potency was “inactive”. With `CCCn1c2c(c(O)c(C(=O)Nc3ccccn3)c1=O)CCCC2` the “activity change, negative = inhibition” value was inactive: 0.173%. With `CC1(C)NC(=O)N(CCOc2ccc3c(c2)CCC3)C1=O` the Potency was inconclusive: 5.8 µM [activator, full curve, poor fit]. For `CCOC(=O)C1=C(C)OC(N)=C(C#N)C1c1cc2cc(C)ccc2nc1N1CCCCC1` (stereo not drawn), the Potency was inconclusive: 0.073 µM [inhibitor, full curve, poor fit]. In the case of `Clc1ccc(-c2nnc3n2CCCCC3)cc1`, the Potency is reported as inconclusive: 3.55 µM [activator, full curve]. With `O=c1cc(CSc2nc(NCc3ccc(Cl)cc3)c3ccccc3n2)nc2ccc(Cl)cn12` the “activity change, negative = inhibition” value was inactive: -10.9% [at 46.1 µM]. In the case of `O=C(Nc1cccc(O)c1)c1cc(-c2ccc3c(c2)OCO3)on1`, the Potency is reported as inconclusive: 1.26 µM [inhibitor, partial curve, poor fit]. With `CCN(CC)C(=O)C1CCCN(Cc2nc(-c3cccs3)no2)C1` (stereo not drawn) the “activity change, negative = inhibition” value was inactive: 5.88% [at 46.1 µM]. In the case of `Cc1ccc(NC(=O)c2cc(=O)[nH]c3ccccc23)cc1C`, the Potency is reported as inconclusive: 35.5 µM [inhibitor, single point]. With `CCCC(OC(=O)CC1Sc2ccccc2NC1=O)C(=O)NCc1ccco1` (stereo not drawn) the Potency was inconclusive: 5.17 µM [inhibitor, partial curve, poor fit]. With `COc1ccc(-c2cn(-c3ccccc3)nc2CO)cc1` the Potency was inconclusive: 5.62 µM [activator, single point]. For `CCOc1ccc(N(CC(=O)Nc2cccc(C)c2)S(C)(=O)=O)cc1`, the Potency was inconclusive: 0.708 µM [inhibitor, partial curve, poor fit]. With `Cc1c(C(=O)/C=C/c2cccs2)oc2ccc(F)cc12` the “activity change, negative = inhibition” value was inactive: 22.8% [at 46.1 µM]. With `COc1ccc2c(c1)C(C)=CC(C)(C)N2S(=O)(=O)c1ccc(NC(C)=O)cc1` the Potency was active: 1.12 µM. With `CN1CCN(c2nc3ccccn3c(=O)c2C=O)CC1` the Potency was inconclusive: 0.316 µM [inhibitor, partial curve, poor fit]. In the case of `COc1cc(C#N)ccc1OCC(=O)NCc1cccs1`, the Potency is reported as inconclusive: 3.55 µM [activator, single point]. In the case of `CNc1nc(NC)nc(NNC(=O)c2ccccc2)n1`, the “activity change, negative = inhibition” value is reported as inactive: 7.28%. For `O=C(NCCc1ccccc1)c1ccc2nccnc2c1`, the Potency was active: 1.26 µM. For `C=CC[C@H](N)C(=O)O`, the Potency was inconclusive: 0.891 µM [inhibitor, full curve]. For `Brc1ccc([C@H]2CN3CCSC3=N2)cc1`, the Potency was inconclusive: 1.16 µM [activator, full curve, poor fit]. With `Nc1ccc(C2=Nc3cccc4cccc(c34)N2)cc1` the “activity change, negative = inhibition” value was inactive: -35.4%. In the case of `CC(C)[C@H](NC(=O)c1ccc(C(C)(C)C)cc1)C(=O)N1CCN(Cc2ccc3c(c2)OCO3)CC1`, the Potency is reported as inconclusive: 11.2 µM [inhibitor, partial curve, poor fit]. For `CCCCC(=O)OCC(=O)C1(O)Cc2c(O)c3c(c(O)c2C(OC2CC(NC(=O)C(F)(F)F)C(O)C(C)O2)C1)C(=O)c1c(OC)cccc1C3=O` (stereo not drawn), the Potency was inconclusive: 1 µM [inhibitor, full curve, poor fit]. In the case of `Cc1nnc(NCc2ccco2)s1`, the Potency is reported as inconclusive: 0.103 µM [activator, single point]. For `O=C(CSc1nccn1Cc1ccco1)Nc1ccccc1C(F)(F)F`, the Potency was inconclusive: 8.91 µM [activator, partial curve, poor fit]. In the case of `CC1CCN(c2nc3ccc(C(=O)O)cc3s2)CC1`, the Potency is reported as inconclusive: 0.316 µM [inhibitor, full curve, poor fit]. In the case of `Cc1cc(C)n2nc(-c3ccco3)nc2n1`, the Potency is reported as inconclusive: 35.5 µM [activator, single point]. In the case of `Cc1cccc(-n2c(Cc3ccccc3)n[nH]c2=S)c1`, the Potency is reported as inconclusive: 35.5 µM [inhibitor, single point]. In the case of `CCCCNC(=O)c1cc2c(=O)n3cccc(C)c3nc2s1`, the Potency is reported as inconclusive: 2.82 µM [activator, full curve, poor fit]. In the case of `CC(C)c1cc(C(=O)Nc2cccc(C(F)(F)F)c2)no1`, the Potency is reported as inconclusive: 0.82 µM [inhibitor, full curve, poor fit]. In the case of `S=c1[nH]nc(COc2cccc(Cl)c2)n1Cc1ccccc1`, the Potency is reported as inconclusive: 6.31 µM [inhibitor, partial curve, poor fit]. With `Cc1cc(C(=O)CN2C(=O)NC3(CCCCC3)C2=O)c(C)n1-c1ccc2c(c1)OCO2` the Potency was inconclusive: 6.31 µM [inhibitor, single point]. In the case of `COc1ccc(-c2nnc(SCc3c(C)noc3C)n2N)cc1OC`, the “activity change, negative = inhibition” value is reported as inactive: 5.26%. With `O=C(/C=C/c1ccc[nH]1)c1ccccc1` the “activity change, negative = inhibition” value was inactive: 7.68% [at 46.1 µM]. With `Cc1ccc(NC(=O)c2ccc(CNc3c(N4CCOCC4)c(=O)c3=O)cc2)cc1` the “activity change, negative = inhibition” value was inactive: -7.5%. With `COC(=O)c1[nH]c2ccc(C)cc2c1NC(=O)Oc1ccccc1` the Potency was inconclusive: 12.6 µM [activator, partial curve, poor fit]. With `COc1cccc(Nc2cc(C)c3ccccc3n2)c1` the Potency was inconclusive: 2.82 µM [inhibitor, partial curve, poor fit]. For `CCn1c(SCC(=O)c2ccc(O)c(O)c2)nnc1-c1ccc(C)cc1`, the Potency was inconclusive: 15.8 µM [inhibitor, partial curve, poor fit]. In the case of `O=C(Nc1ncc(S(=O)(=O)c2ccc([N+](=O)[O-])cc2)s1)c1cccc2ccccc12`, the Potency is reported as inconclusive: 7.94 µM [inhibitor, partial curve, poor fit]. With `Cc1ccc(CNC(=O)c2oc3ccc(S(=O)(=O)N4CCC(C)CC4)cc3c2C)cc1` the Potency was inconclusive: 35.5 µM [inhibitor, single point]. With `O=C1CN(C(=O)C2CCCC2)CCN1` the Potency was inconclusive: 1.26 µM [activator, single point]. For `O[C@@H](CNC[C@H](O)c1ccccc1)c1ccccc1`, the Potency was inconclusive: 32.6 µM [inhibitor, single point]. With `CCN(CC(=O)NCc1ccc(Cl)cc1)C(=O)Cc1ccc(OC)cc1` the Potency was inconclusive: 0.562 µM [inhibitor, full curve, poor fit]. With `Cc1cc(NC(=O)c2cc3ccccc3o2)no1` the “activity change, negative = inhibition” value was inactive: 10.1% [at 46.1 µM]. In the case of `O=C(CN1C(=O)S/C(=C\C=C\c2ccccc2)C1=O)Nc1ccc(O)cc1`, the Potency is reported as inconclusive: 6.51 µM [activator, single point]. In the case of `CN(C)c1nc(Oc2ccc(N)cc2)nc(N(C)C)n1`, the “activity change, negative = inhibition” value is reported as inactive: -15.7%. With `Cc1ccc(F)cc1NC(=O)c1ccc(NS(=O)(=O)c2ccc(Br)s2)cc1` the Potency was inconclusive: 3.16 µM [activator, single point]. In the case of `Cc1ccccc1OCc1n(CC(=O)OC2CC(C)CCC2C(C)C)c2ccccc2[n+]1C` (stereo not drawn), the Potency is reported as active: 3.55 µM. With `CCCOc1ccc(C(C)=O)cc1Cc1c(O)[nH]c(=S)[nH]c1=O` the “activity change, negative = inhibition” value was inactive: 2.8%. For `COc1cc2nc(Nc3ccc(C)c(Cl)c3)nc(N)c2cc1OC`, the Potency was inconclusive: 35.5 µM [inhibitor, single point]. With `Cc1nc(SCC(=O)Nc2c(C)n(C)n(-c3ccccc3)c2=O)[nH]c(=O)c1C` the Potency was inconclusive: 32.6 µM [activator, partial curve, poor fit]. In the case of `COc1cc(C(=O)Nc2nc(C)c(Cc3ccc4c(c3)OCO4)s2)cc(OC)c1OC`, the “activity change, negative = inhibition” value is reported as inactive: -42.4%. With `Cc1nc2ccccc2cc1C(=O)O` the Potency was inconclusive: 5.01 µM [inhibitor, single point]. In the case of `CC(C)c1nc(-c2ccc([N+](=O)[O-])cc2)cs1`, the Potency is reported as inconclusive: 1.26 µM [inhibitor, single point]. For `c1ccc(CCC2CCCCN2Cc2cn[nH]c2-c2cc3ccccc3o2)nc1` (stereo not drawn), the Potency was inconclusive: 7.94 µM [inhibitor, partial curve, poor fit]. With `COC(=O)C(Cc1cnc(Cl)s1)(C(=O)OC)c1ccc([N+](=O)[O-])cc1[N+](=O)[O-]` the Potency was inconclusive: 1.58 µM [inhibitor, partial curve, poor fit].
